Experimental data published in the supplement of paper PMC5949888.
Most values lie at the floor of the assay. Slopes are relative: functional sequences can read slightly below zero.

tested on: Saccharomyces cerevisiae PS128 hsf1 delta, HSF1(1-493) fusion; assay: growth estimate (transactivation domain function in HSF1 fusion, heat-shock survival) (a.u. (slope of normalised read count over time)); higher = stronger growth at 37°C, i.e. more transactivation activity; settings: library: random library
Protocol: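 Random 60-nt DNA library encoding peptides of up to 20 aa, fused to the C-terminus of yeast HSF1 residues 1-493 (C-terminal TAD deleted) and expressed from the native HSF1 promoter on a CEN plasmid in hsf1-deleted S. cerevisiae PS128. Cells were selected at 37°C on -trp 5-FOA plates for 0, 2, 4, 6 and 8 days and amplicons were sequenced. Growth estimate is the slope of a robust linear fit of total-sum-normalised read counts (normalised to the first time point) over time, using at least 2 replicates. Sequences are classed functional (TAD activity) above a threshold of -0.13, set from stop-codon control sequences.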

| Substance | growth estimate |
| --- | --- |
| GRSSVEGCPWVVQTCIVHTT | < -0.25 |
| IAMSLASP | < -0.25 |
| HDAGLPGIL | < -0.25 |
| AGDVMGATPLSRASAPLSNT | < -0.25 |
| ASKCISSPRITRVRASMKGP | < -0.25 |
| HGWLSPRGHCALPGTRLFAS | < -0.25 |
| DQRLS | < -0.25 |
| WLHAL | < -0.25 |
| WVYLRRPSIHKV | < -0.25 |
| KSCWC | < -0.25 |
| PDKYTSTFVGYVST | < -0.25 |
| PSM | < -0.25 |
| YRYAWGSTARISSL | < -0.25 |
| GRST | -0.245 |
| GQA | < -0.25 |
| RGPIV | < -0.25 |
| GKQATGCL | < -0.25 |
| ERFYGSDPRWKGGQKGQQGR | < -0.25 |
| FSLASAGNEGTCMY | < -0.25 |
| VLFRASFIWHHLVTSEIWAF | < -0.25 |
| QEYRPTYLDTLLIGT | < -0.25 |
| LHHIFVLYGRAKLITFASVG | < -0.25 |
| KLDGCGLRGIGSMGMVM | < -0.25 |
| EERWSTGMGTGPGCAGSRSL | < -0.25 |

| Substance | growth estimate |
| --- | --- |
| WDSQWDCKHSVRHRAA | < -0.25 |
| PLHTIVVVCRTPLGWQAVSV | < -0.25 |
| VAMARGPSSSKGSSSYSERN | -0.25 |
| LNTLRQGICGTSSSAY | < -0.25 |
| PWPYVSVYPADIGFTPAEC | < -0.25 |
| LNGTSSCRLNVFQCGG | < -0.25 |
| IVTRVRRLFNALHGEGVPAK | < -0.25 |
| FIGW | < -0.25 |
| AQLGRLHWVYCLDVGLALRR | < -0.25 |
| VRCIGDDQEYVLL | < -0.25 |
| TRSGCWYSI | < -0.25 |
| KGRSFTALSLAALYYMDR | < -0.25 |
| PNEERYRVFMFRWWRAKRRR | < -0.25 |
| AGWNGHSHFVRRVQTEVT | < -0.25 |
| FPDV | < -0.25 |
| TGHCGFSLLELGIYLRA | < -0.25 |
| SPITRGPPIVDLAP | < -0.25 |
| HPLRSLLVDKRQSPGK | < -0.25 |
| HFVYKDAKSKSTTGIRDGLA | < -0.25 |
| PQAATFGKDLLATKSLISLT | < -0.25 |
| RGSTRKPMGIQIINAGVVCV | < -0.25 |
| VTL | < -0.25 |
| SGSLV | -0.246 |
| VLGRPEY | < -0.25 |

2 neighbouring entries out of the list so far, quoted:

| Substance | growth estimate |
| --- | --- |
| SGSLV | -0.246 |
| VLGRPEY | < -0.25 |

Rewritten in CSV form: entries from further up.
Substance,growth estimate
SPITRGPPIVDLAP,< -0.25
HPLRSLLVDKRQSPGK,< -0.25
HFVYKDAKSKSTTGIRDGLA,< -0.25

The list goes on.

| Substance | growth estimate |
| --- | --- |
| IGYW | < -0.25 |
| RGGHIELLVVNLRRRDS | < -0.25 |
| HILGPHFVGGPQTA | < -0.25 |
| TLHVERHIAGSHNITGLDRA | -0.198 |
| VPY | < -0.25 |
| EKATVAGAPLRPCTSGEEKT | < -0.25 |
| EGYRLSPILDGLRLRPGGGA | < -0.25 |
| GGYQGNDICTGRNR | < -0.25 |
| GNGSSCRVITQHLLVTPGAP | < -0.25 |
| LKSRRSHRKENAGGQRPLLK | < -0.25 |
| PASYGG | < -0.25 |
| SYGTPGEPSIITGTMIWVME | < -0.25 |
| LHSGKSGSSEVQLTFTAHRH | < -0.25 |
| GHHTPCGGLRQS | < -0.25 |
| SSPIRICSSLAGSDYGPP | < -0.25 |
| QLGLLRLLWVHTMGPCLEYA | < -0.25 |
| SKEQSKHVCQLGVSSELE | < -0.25 |
| QFVAWIRVFPFRAG | < -0.25 |
| PCRRIRSGGRPVLPSAGTPW | < -0.25 |
| TLVNFLGMGAYPADVAGPGT | < -0.25 |
| VREWCSPTERPRNILGSNRQ | < -0.25 |
| PQGERVSLKPGHGCRNCDKG | < -0.25 |
| MTVMRRRLTENGYSVERVSA | < -0.25 |
| VYSRSKVPMVYADLHWLALR | < -0.25 |

| Substance | growth estimate |
| --- | --- |
| KFRKLQVDKLRRSQRSIGHK | < -0.25 |
| LRAFGNGSKHSY | < -0.25 |
| VVAEYE | < -0.25 |
| CGQKTQVHIRMTRNSRLHNW | < -0.25 |
| YVWLGRFEGIRE | < -0.253 |
| MFHPDLSSAR | < -0.25 |
| SSDYAESNTGRLISQRPPAP | < -0.25 |
| SFGLPGSWSVFWADEAAGLN | -0.0303 |
| SGGCCIVGVEIHFPRRV | < -0.25 |
| VRTSQLSG | < -0.25 |
| RCIGVVIS | < -0.25 |
| MSSFICGSSRAGVGDRIGYE | < -0.25 |
| PGRYAGGLSAVGL | < -0.25 |
| LFG | < -0.25 |
| PGHI | < -0.25 |
| GAVA | < -0.25 |
| GVETLETKTFGTCSI | < -0.25 |
| EGRLSTEGSSTHVAYTGLGL | < -0.25 |
| PFDRDLMAVGSVTTGLTYHP | < -0.25 |
| SGYIEPVAKHRESVCKCRLA | < -0.25 |
| ESVRWNEEGRHFSRRVNE | < -0.25 |
| GSSSSKLSILCLVNHVGLPS | < -0.25 |
| GDSNVARLYPVHMTSCQAHE | < -0.25 |
| TSSSLERARMSGRRTPDVEE | < -0.25 |
